Experimental data: PubChem BioAssay AID504764 (Drosophila RNAi Screening Center, 2011)
The screen tested about 22,000 reagents; this is an unselected part of those with a known target gene and a result. In the full data, 403 (1.9%) were called active. 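Unnormalised raw counts per well; ratio z-scores behind the hit calls and whether each hit raises or lowers signal are not deposited.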 Names joined by + are all predicted targets of the reagent. Not given: the amount of reagent.

- Screen: 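Knock-downs that raise or lower a Notch target reporter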 (primary screen)
- Cells: Drosophila Kc167 cells
- Reagent: long dsRNA against Drosophila genes
- Time to read-out: about 5 days (4 days dsRNA, then 24 h after transfection)
- Treatment: transfection of constitutively active membrane-tethered Notch lacking the extracellular domain, read 24 h later
- Measured: 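Light from a Notch-responsive E(spl)m3 luciferase reporter under active Notch, with control-promoter and no-Notch reporter wells to normalise; raw counts from paired wells a and b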
- Direction: induced reporter light, run 1, well a and induced reporter light, run 1, well b: higher = more light from the Notch target reporter with active Notch; control promoter light, run 1, well a and control promoter light, run 1, well b: higher = more light from the viral control promoter (cell number, transfection, viability); uninduced reporter light, run 1, well a: higher = more light from the Notch target reporter without active Notch
- Active means: 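Wells with low control signal or poorly matching duplicates excluded; duplicates averaged; per source plate, z beyond ±2 for induced/control log2 ratio or beyond ±1.8 for induced/uninduced marks a hit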
- Calls: active = modifier hit (raised or lowered Notch signal); inactive = not a hit

{"gene": "BomBc1", "amplicon": "DRSC06501", "induced reporter light, run 1, well a": 81600, "induced reporter light, run 1, well b": 88485, "control promoter light, run 1, well a": 1.37e5, "control promoter light, run 1, well b": 1.23e5, "uninduced reporter light, run 1, well a": 10720, "call": "inactive"}
{"gene": "CG15344 (retired record)", "amplicon": "DRSC18029", "induced reporter light, run 1, well a": 1.15e5, "induced reporter light, run 1, well b": 1.36e5, "control promoter light, run 1, well a": 2.23e5, "control promoter light, run 1, well b": 2.70e5, "uninduced reporter light, run 1, well a": 8805, "call": "inactive"}
{"gene": "SmD2", "amplicon": "DRSC12536", "induced reporter light, run 1, well a": 65675, "induced reporter light, run 1, well b": 38395, "control promoter light, run 1, well a": 30215, "control promoter light, run 1, well b": 27085, "uninduced reporter light, run 1, well a": 3730, "call": "inactive"}
{"gene": "Stat92E", "amplicon": "DRSC16870", "induced reporter light, run 1, well a": 1.66e5, "induced reporter light, run 1, well b": 1.68e5, "control promoter light, run 1, well a": 2.07e5, "control promoter light, run 1, well b": 1.85e5, "uninduced reporter light, run 1, well a": 14928, "call": "inactive"}
{"gene": "CG31248", "amplicon": "DRSC22722", "call": "inactive"}
{"gene": "CG30334", "amplicon": "DRSC05345", "induced reporter light, run 1, well a": 2.36e5, "induced reporter light, run 1, well b": 2.33e5, "control promoter light, run 1, well a": 2.00e5, "control promoter light, run 1, well b": 2.14e5, "uninduced reporter light, run 1, well a": 17828, "call": "inactive"}
{"gene": "fd3F + CG42499 (retired record)", "amplicon": "DRSC18160", "induced reporter light, run 1, well a": 1.78e5, "induced reporter light, run 1, well b": 1.83e5, "control promoter light, run 1, well a": 3.97e5, "control promoter light, run 1, well b": 3.60e5, "uninduced reporter light, run 1, well a": 12865, "call": "inactive"}
{"gene": "fd3F + CG42499 (retired record)", "amplicon": "DRSC18161", "induced reporter light, run 1, well a": 1.54e5, "induced reporter light, run 1, well b": 1.63e5, "control promoter light, run 1, well a": 3.06e5, "control promoter light, run 1, well b": 3.26e5, "uninduced reporter light, run 1, well a": 13800, "call": "inactive"}
{"gene": "mtd", "amplicon": "DRSC12131", "induced reporter light, run 1, well a": 1.08e5, "induced reporter light, run 1, well b": 1.42e5, "control promoter light, run 1, well a": 1.08e5, "control promoter light, run 1, well b": 86520, "uninduced reporter light, run 1, well a": 11860, "call": "inactive"}
{"gene": "mtd", "amplicon": "DRSC12380", "induced reporter light, run 1, well a": 1.09e5, "induced reporter light, run 1, well b": 1.14e5, "control promoter light, run 1, well a": 86600, "control promoter light, run 1, well b": 90150, "uninduced reporter light, run 1, well a": 9765, "call": "inactive"}
{"gene": "mtd", "amplicon": "DRSC12381", "induced reporter light, run 1, well a": 83000, "induced reporter light, run 1, well b": 90605, "control promoter light, run 1, well a": 1.29e5, "control promoter light, run 1, well b": 68870, "uninduced reporter light, run 1, well a": 5535, "call": "inactive"}
{"gene": "rgn", "amplicon": "DRSC11609", "induced reporter light, run 1, well a": 94030, "induced reporter light, run 1, well b": 1.15e5, "control promoter light, run 1, well a": 71170, "control promoter light, run 1, well b": 78765, "uninduced reporter light, run 1, well a": 7500, "call": "inactive"}

Reprinted from the listing (2 entries):
{"gene": "BomBc1", "amplicon": "DRSC06501", "induced reporter light, run 1, well a": 81600, "induced reporter light, run 1, well b": 88485, "control promoter light, run 1, well a": 1.37e5, "control promoter light, run 1, well b": 1.23e5, "uninduced reporter light, run 1, well a": 10720, "call": "inactive"}
{"gene": "CG15344 (retired record)", "amplicon": "DRSC18029", "induced reporter light, run 1, well a": 1.15e5, "induced reporter light, run 1, well b": 1.36e5, "control promoter light, run 1, well a": 2.23e5, "control promoter light, run 1, well b": 2.70e5, "uninduced reporter light, run 1, well a": 8805, "call": "inactive"}
